Assay [1] concerns the target FLAG tagged TOP2A (UniProt P11388). The experiment in a line: co-IP; FLAG-TOP2A or FLAG-TOP2B precipitated on ANTI-FLAG M2 Affinity Gel from HEK-293T lysate, washed with 50 mM Tris-HCl pH 7.5, 250 mM NaCl, 0.5% NP40, blot with anti-CSB; cells untreated or treated 2 h with DOX, MXT or ETO.
Assay [2] addresses FLAG tagged TOP2B (UniProt Q02880). Described as above.
Assay [3] shares this target. The experiment in a line: co-IP; FLAG-TOP2B precipitated on ANTI-FLAG M2 Affinity Gel from lysate of HEK-293T cells treated 2 h with ETO, blot with anti-CSB.
For assay [4] the target is unchanged. Briefly: co-IP; FLAG-TOP2B precipitated on ANTI-FLAG M2 Affinity Gel from lysate of HEK-293T cells treated 2 h with DOX, blot with anti-CSB.

By UniProt entry, the sequences of proteins in these tests, tags left out.
UniProt P11388: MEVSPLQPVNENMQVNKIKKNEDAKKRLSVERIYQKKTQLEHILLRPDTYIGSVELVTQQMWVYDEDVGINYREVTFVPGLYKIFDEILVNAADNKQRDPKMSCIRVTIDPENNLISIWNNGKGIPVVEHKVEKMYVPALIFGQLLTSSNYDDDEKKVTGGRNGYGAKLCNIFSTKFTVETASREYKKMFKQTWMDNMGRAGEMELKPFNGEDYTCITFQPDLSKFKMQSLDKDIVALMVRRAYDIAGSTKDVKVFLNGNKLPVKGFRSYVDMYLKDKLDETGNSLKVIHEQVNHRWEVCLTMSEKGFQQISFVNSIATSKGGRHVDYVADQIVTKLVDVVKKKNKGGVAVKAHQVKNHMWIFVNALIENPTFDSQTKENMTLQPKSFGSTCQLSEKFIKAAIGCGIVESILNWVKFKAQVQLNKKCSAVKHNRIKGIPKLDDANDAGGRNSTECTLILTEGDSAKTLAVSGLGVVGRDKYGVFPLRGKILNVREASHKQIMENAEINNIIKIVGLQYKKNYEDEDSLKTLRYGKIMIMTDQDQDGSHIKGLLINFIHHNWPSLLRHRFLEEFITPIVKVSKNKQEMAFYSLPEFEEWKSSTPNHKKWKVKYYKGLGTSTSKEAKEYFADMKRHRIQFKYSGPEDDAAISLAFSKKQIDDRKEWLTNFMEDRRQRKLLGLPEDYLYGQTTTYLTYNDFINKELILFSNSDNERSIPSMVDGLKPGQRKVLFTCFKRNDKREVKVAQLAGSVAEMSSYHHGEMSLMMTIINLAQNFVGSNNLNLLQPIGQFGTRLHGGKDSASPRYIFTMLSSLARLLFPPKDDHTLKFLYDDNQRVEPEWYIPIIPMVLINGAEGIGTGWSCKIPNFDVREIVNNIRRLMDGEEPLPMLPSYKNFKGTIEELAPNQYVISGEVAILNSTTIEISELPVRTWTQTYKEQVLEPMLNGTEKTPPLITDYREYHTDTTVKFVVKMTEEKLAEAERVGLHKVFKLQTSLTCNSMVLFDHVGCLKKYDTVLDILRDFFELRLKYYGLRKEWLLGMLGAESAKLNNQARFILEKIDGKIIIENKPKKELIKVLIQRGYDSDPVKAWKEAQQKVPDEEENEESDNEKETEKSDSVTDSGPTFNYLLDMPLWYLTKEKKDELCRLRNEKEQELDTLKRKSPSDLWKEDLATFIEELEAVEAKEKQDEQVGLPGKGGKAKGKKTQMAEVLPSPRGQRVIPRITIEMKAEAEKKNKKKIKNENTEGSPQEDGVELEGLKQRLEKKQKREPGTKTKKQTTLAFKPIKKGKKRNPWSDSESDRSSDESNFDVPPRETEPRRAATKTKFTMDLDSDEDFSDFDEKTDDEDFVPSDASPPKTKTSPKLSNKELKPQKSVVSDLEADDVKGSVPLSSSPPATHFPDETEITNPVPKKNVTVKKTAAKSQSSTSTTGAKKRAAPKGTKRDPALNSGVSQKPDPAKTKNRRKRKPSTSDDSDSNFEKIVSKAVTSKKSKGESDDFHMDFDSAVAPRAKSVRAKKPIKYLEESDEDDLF
UniProt Q02880: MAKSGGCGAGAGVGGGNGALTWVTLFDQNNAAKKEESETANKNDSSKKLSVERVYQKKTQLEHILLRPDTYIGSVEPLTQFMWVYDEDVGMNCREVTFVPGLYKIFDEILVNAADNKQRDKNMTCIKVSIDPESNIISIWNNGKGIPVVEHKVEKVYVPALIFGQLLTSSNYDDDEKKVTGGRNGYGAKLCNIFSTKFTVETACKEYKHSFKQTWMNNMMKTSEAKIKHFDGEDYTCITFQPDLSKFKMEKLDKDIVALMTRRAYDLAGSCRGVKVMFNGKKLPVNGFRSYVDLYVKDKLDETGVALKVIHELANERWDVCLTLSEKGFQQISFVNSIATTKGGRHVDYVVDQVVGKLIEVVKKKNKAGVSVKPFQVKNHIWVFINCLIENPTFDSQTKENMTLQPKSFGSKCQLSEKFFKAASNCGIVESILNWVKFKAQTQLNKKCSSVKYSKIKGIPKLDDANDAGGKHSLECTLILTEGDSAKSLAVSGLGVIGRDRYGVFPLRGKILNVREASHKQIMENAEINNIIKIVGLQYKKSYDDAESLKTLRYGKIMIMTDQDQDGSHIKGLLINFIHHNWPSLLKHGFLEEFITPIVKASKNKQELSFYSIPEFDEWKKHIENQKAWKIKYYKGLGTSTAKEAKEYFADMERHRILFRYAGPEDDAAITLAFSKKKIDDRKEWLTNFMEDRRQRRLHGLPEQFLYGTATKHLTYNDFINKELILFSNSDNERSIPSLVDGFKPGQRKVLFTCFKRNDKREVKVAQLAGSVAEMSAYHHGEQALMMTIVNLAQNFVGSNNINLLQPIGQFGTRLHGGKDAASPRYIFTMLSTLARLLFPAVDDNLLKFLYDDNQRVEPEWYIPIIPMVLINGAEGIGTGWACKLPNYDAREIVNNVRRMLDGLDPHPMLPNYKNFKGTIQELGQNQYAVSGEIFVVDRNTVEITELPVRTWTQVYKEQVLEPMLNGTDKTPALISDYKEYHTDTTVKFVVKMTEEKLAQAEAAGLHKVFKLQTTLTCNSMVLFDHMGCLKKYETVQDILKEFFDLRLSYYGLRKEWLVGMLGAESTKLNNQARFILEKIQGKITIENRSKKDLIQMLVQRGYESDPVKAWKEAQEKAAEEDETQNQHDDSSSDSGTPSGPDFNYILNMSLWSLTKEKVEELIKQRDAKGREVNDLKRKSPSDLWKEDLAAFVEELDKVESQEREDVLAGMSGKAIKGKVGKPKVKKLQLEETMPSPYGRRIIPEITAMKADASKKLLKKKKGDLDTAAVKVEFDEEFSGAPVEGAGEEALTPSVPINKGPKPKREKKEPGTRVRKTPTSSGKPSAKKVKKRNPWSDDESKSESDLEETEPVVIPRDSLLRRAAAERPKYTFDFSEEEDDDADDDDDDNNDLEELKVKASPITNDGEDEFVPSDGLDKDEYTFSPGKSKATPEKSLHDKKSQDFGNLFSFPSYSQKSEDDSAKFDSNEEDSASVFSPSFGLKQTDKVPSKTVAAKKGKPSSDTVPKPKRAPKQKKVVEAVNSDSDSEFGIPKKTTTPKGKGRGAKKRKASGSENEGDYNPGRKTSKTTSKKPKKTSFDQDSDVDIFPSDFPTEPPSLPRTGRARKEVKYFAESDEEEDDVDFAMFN
UniProt Q03468: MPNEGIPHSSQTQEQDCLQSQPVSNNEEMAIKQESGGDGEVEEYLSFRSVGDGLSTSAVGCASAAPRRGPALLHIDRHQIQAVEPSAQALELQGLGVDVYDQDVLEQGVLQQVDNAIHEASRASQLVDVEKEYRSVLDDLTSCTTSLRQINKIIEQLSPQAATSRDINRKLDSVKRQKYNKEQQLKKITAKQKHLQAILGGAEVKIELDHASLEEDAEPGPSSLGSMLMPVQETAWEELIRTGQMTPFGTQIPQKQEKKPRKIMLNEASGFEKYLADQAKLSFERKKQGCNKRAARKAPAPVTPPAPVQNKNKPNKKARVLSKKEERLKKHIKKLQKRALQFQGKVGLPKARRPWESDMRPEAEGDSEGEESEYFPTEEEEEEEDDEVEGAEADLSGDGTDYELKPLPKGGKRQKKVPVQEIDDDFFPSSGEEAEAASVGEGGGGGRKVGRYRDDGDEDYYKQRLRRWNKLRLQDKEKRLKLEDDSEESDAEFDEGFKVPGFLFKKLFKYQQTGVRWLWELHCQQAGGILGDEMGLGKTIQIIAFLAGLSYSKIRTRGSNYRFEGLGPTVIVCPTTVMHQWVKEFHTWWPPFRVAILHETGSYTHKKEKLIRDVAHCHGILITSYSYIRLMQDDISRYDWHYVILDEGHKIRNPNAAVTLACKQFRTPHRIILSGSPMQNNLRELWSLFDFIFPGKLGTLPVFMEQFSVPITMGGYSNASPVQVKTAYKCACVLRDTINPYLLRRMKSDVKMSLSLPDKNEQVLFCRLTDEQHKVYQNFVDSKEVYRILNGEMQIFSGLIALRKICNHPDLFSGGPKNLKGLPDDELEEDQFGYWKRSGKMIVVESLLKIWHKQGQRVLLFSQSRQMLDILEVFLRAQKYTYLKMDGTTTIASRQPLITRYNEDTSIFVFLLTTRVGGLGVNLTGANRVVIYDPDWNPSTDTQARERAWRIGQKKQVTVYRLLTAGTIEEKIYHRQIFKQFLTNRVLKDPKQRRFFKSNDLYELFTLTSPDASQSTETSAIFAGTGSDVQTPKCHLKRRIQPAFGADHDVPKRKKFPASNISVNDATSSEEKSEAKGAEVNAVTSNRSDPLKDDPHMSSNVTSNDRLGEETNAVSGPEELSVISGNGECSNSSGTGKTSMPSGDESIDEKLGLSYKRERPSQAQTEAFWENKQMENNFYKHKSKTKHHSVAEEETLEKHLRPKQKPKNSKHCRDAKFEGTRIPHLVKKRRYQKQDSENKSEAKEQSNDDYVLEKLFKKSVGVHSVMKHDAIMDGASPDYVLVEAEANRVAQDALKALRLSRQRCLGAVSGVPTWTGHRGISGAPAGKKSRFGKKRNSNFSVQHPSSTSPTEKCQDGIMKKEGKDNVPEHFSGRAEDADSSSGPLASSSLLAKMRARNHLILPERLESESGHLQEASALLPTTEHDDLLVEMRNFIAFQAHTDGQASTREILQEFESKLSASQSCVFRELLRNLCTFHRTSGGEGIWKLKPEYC

Results are given in words; binding and its absence hold for the method and conditions named. Binding seen in cells or lysates may run through a third protein. Some entries that bind do so weakly or less than the wild type.

For the substance “Cockayne Syndrome B (CSB) protein (from UniProt Q03468 1-1493)”, the binding result was “binds weakly” in assay [1], “binds weakly” in assay [2], “no binding (condition: cells treated with ETO for 2 h)” in assay [3] and “no binding (condition: cells treated with DOX for 2 h)” in assay [4].

The values above are taken from publication PMC8569893.
